## Percent effect of library compounds

Chains of the proteins cited; added tags and fusions are not shown. Residues count along the entry.
UniProt A4I591, 1-473: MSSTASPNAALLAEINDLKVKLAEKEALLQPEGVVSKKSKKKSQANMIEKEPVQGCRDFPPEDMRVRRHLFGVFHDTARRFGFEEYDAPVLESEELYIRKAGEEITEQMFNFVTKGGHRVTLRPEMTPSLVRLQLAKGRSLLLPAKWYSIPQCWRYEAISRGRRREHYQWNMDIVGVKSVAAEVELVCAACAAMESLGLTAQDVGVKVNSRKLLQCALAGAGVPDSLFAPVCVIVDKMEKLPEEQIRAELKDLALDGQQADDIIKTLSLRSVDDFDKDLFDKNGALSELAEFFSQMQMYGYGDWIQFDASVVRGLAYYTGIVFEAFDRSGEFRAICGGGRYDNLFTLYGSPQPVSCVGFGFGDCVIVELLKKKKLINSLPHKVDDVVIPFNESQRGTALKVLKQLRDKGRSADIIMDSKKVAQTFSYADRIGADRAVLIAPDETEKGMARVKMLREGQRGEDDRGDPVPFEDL
UniProt I6X8D2, whole entry: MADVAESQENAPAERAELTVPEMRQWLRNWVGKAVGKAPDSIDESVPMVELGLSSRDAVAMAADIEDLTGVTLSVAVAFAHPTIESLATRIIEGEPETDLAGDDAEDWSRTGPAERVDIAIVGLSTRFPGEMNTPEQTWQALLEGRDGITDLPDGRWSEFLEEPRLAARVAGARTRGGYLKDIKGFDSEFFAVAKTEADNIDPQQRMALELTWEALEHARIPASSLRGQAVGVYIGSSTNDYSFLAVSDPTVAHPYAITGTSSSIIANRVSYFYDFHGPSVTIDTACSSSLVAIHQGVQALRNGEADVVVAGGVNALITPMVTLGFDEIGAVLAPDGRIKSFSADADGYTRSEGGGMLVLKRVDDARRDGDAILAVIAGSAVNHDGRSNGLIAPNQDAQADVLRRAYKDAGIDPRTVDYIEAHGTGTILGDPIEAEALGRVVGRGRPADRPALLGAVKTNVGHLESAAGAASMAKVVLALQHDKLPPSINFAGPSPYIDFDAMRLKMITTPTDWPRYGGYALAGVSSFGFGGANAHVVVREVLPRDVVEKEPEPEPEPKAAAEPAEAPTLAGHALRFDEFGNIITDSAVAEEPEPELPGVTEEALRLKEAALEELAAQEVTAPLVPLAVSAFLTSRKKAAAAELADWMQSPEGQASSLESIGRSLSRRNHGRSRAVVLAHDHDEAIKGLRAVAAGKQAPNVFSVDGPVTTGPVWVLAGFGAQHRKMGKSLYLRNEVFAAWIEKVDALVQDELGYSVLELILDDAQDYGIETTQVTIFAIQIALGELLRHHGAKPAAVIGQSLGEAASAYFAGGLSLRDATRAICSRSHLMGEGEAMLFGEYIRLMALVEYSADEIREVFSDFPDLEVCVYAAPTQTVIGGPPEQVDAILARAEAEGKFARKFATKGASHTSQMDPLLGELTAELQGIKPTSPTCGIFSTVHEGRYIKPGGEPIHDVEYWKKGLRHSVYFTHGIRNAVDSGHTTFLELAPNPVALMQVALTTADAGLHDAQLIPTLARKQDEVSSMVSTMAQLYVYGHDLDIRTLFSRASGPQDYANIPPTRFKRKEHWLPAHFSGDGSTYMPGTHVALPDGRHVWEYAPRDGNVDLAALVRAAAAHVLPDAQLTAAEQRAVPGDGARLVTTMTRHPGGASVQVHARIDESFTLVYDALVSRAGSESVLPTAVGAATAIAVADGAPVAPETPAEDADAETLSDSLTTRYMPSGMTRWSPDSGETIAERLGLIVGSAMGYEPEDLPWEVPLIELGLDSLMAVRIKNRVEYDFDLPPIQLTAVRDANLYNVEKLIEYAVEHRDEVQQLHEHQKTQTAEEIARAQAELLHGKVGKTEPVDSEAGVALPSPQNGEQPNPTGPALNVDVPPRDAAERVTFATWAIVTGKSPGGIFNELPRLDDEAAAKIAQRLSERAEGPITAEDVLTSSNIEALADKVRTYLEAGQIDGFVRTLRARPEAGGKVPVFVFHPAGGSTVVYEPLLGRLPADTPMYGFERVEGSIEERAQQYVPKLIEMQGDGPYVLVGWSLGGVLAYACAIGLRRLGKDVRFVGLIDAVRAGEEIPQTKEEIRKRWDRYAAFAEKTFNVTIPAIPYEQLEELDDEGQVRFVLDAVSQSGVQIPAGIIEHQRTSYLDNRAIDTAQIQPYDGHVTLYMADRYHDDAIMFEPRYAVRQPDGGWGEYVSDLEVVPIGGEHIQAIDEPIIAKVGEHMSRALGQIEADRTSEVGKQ

Source: ChEMBL document CHEMBL3988442, “University of Dundee, Small-Polar-MMV Screening Library” (2021).

A: 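Cell assay of Leishmania donovani living inside macrophages; the read-out is not stated. Concentration: 30 µM. The record gives no direction; compounds that gave an IC50 in retests scored well above the rest, so higher reads as stronger inhibition. About 69,000 compounds were tested under these conditions; 1.5% (about 1,000) showed 50% or more at least once.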
B: 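Enzyme assay of histidyl-tRNA synthetase; the read-out is not stated. Target: Histidine-tRNA ligase, Leishmania infantum (UniProt A4I591). Concentration: 30 µM. Direction is inferred from retests: higher values go with stronger inhibition. The assay is labelled LdHisRS but filed under L. infantum. About 69,000 compounds were tested under these conditions; 0.6% (about 410) showed 50% or more at least once.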
C: 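Polyketide synthase Pks13, Mycobacterium tuberculosis (UniProt I6X8D2). Enzyme assay of the thioesterase domain of polyketide synthase 13; the read-out is not stated. Compounds at 30 µM. Higher reads as stronger inhibition (inferred from which compounds were picked for retests). Size under these conditions: about 67,000 compounds, about 300 of them at 50% or above in at least one test.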

Results are given as percent effect. The controls that fix the scale are not given in the record; negative values are as filed. The compounds are a random part of those screened.

- COc1ncnc2c1CCN(Cc1cccs1)CC2 | B: 2.778%; C: 18.85%
- CCOc1cc(CNC(=O)C(C#N)c2nc(C)cs2)ccc1OC(F)F (stereo not shown) | A: 33.16%; B: -7.692%; C: 21.12%
- Cc1cc(C)c(CNC(=O)NCc2ccc3c(c2)CCC3)c(=O)[nH]1 | A: -7.421%; B: 18.4%; C: -3.88%
- NC(=O)c1c(SCCN2CCCCC2)sc2c(O)cc(=O)[nH]c12 | A: -51.97%; B: 32.61%; C: 3.257%
- CCN1CCCc2cc(CN3CCc4nc(C)[nH]c(=O)c4C3)ccc21 | A: -13.73%; B: 8.054%; C: 1.376%
- CC1(C(=O)N2CCOCC2)CN(Cc2ccccn2)CCO1 (stereo not shown) | A: -5.754%; B: -2.778%; C: -36.93%
- c1cncc(C(Cn2cnnc2)N2CCOCC2)c1 (stereo not shown) | A: 9.091%; B: 22.67%; C: -20.09%
- O=C(O)C(F)(F)F.O=C(O)C(F)(F)F.c1nc(CNC2CCOCC2)c2n1CCCN(CC1CC1)C2 | A: -20.43%
- CN(C)c1nc2c(c(=O)[nH]1)CCN(C(=O)c1c[nH]c(=O)c(Cl)c1)C2 | A: 2.719%; B: 23.08%; C: -19.15%
- Cc1oncc1C(=O)NCc1cc(=O)n2c(n1)CN(CC(C)C)CCC2 | B: 7.965%; C: -3.12%
- COCCC1(C(=O)O)CCCN(c2cc(C)c3ccccc3n2)C1 (stereo not shown) | A: 14.1%; B: 6.667%; C: -1.256%
- [H][C@]12CNC[C@@]1(C(=O)N(C)Cc1nc(C)c[nH]1)CNC2 | A: -10.47%
- COc1cccc(Cc2nnc(SCCS(C)(=O)=O)o2)c1 | A: 2.691%; B: 11.61%; C: -4.338%
- O=C(NCC1CC2(CO1)CN(c1ncccn1)C2)C1CCC1 (stereo not shown) | A: 1.586%; B: 6.306%; C: -6.327%
- O=C(c1ccc2c(c1)CCO2)N1CCN(c2cnccn2)CC1 | A: 22.96%; B: 21.82%; C: 6.314%
- CC(C)=CCN1CCC2(CC1)CC(=O)N(Cc1cc(F)cc(F)c1)C2 | A: 45.04%; B: 11.24%; C: -6.694%
- O=C(CC1CC1)NC[C@]12COC[C@H]1CN(c1ncc(F)cn1)C2 | B: 1.01%; C: 8.611%
- CS(=O)(=O)N1CCOCC2(CN(Cc3ccsc3)CCO2)C1 (stereo not shown) | B: 19.05%; C: -5.568%
- CCc1ccc(CNC(=O)Nc2cc(C)on2)s1 | A: 9.208%; B: 3.896%; C: 15.86%
- O=C(c1ccc[nH]1)N1CCCn2c(CN3CCCCC3)nnc2C1 | A: 37.74%; B: 8.182%; C: -19.86%
- N#Cc1cccc(OCC(=O)N(Cc2ccsc2)C2CC2)c1 | A: 1.789%; B: 19.15%; C: 5.059%
- CN1CC(=O)N(c2ccccc2)CC12CCN(CC1CC1)C2.O=C(O)C(F)(F)F.O=C(O)C(F)(F)F (stereo not shown) | A: -1.399%
- Cc1ccc(O)c(CNc2cccc(CN3CCN(C)CC3)c2)n1 | A: 10.55%; B: 40.96%; C: -2.58%
- O=C(NS(=O)(=O)c1ccccc1C(F)(F)F)c1cccc2c1OCCO2 | A: -25.41%; B: 19.75%; C: 4.4%
- CCN1CCCC1CNCc1cc2cc(OC)ccc2[nH]c1=O (stereo not shown) | A: 16.75%; B: 14.08%; C: 21.79%
- CC1CN(C(=O)NCCNc2cnccn2)CCO1 (stereo not shown) | A: -31.49%; B: 1.754%; C: -7.573%
- Cc1ccccc1OC(C(=O)N1CCC2(CC1)CN(C)C(=O)O2)C(C)C (stereo not shown) | A: 9.269%; B: -5.263%; C: -31.1%
- COc1cccc(CN2CCC(Cc3cnc(CN(C)C)cn3)CC2)c1 | A: -19.5%; B: 21.43%; C: -20.55%
- O=C(O)C(F)(F)F.O=C(O)C(F)(F)F.c1cncc(COCc2nnn3c2CN(Cc2ccsc2)CC3)c1 | A: -0.9443%
- Cc1ccccc1C1(C(=O)NCCN2CCCC2)CCOCC1 | A: 19.9%; B: 14.29%; C: -14.39%
- CN(C(=O)c1cc(F)ccc1F)[C@@H]1CC[C@@H](O)[C@@H]1O | A: 10.55%; B: 14.08%; C: -1.667%
- c1cc(CN2CCOCC3(CCN(CC4CCOCC4)CC3)C2)ccn1 | B: 17%; C: 3.041%
- CN1Cc2ccccc2CC2(CCN(C(=O)[C@H]3CCCO3)CC2)C1=O | A: 11.16%; B: 20%; C: -14.82%
- CC1c2ncc(Cn3cccn3)n2CCN1Cc1cccnc1.O=C(O)C(F)(F)F.O=C(O)C(F)(F)F (stereo not shown) | A: -21.66%
- CC(NC(=O)Nc1nccs1)c1ccc(S(C)(=O)=O)cc1 (stereo not shown) | A: 31.48%; B: 11.11%; C: -8.154%
- COCCN1CCC2(CC1)CC(NC(=O)CN(C)C)c1ccccc1O2 (stereo not shown) | B: 7.692%; C: -23.37%
- CCN1CCn2c(C)cnc2C12CCN(C(=O)c1ccco1)CC2.O=C(O)C(F)(F)F.O=C(O)C(F)(F)F | A: -2.821%
- Cn1c(NCC(O)c2ccc(F)c(F)c2)c(C#N)c(=O)n(C)c1=O (stereo not shown) | A: -0.6187%; B: 16.95%; C: -5.951%
- O=C(O)C(F)(F)F.[H][C@]12CCC[C@@]1(COc1ccccn1)CN(C(=O)CS(C)(=O)=O)C2 | A: 33.57%

For reference, 2 entries once more:

{"structure": "CCN1CCCC1CNCc1cc2cc(OC)ccc2[nH]c1=O", "stereo": "stereo not shown", "A": 16.75, "B": 14.08, "C": 21.79}
{"structure": "NC(=O)c1c(SCCN2CCCCC2)sc2c(O)cc(=O)[nH]c12", "A": -51.97, "B": 32.61, "C": 3.257}